# In publication doi:10.1101/2025.09.24.678297:
# Results are given in words; binding and its absence hold for the method and conditions named. Binding seen in cells or lysates may run through a third protein. Here binding means that the protein was enriched with, or labelled near, the bait; the list need not be complete. Where a sequence is shown, tags or fusion partners need not be part of it.
# T1: Ste4-GFP (endogenous) (S. pombe (endogenous in mating cells)) (UniProt P36622)
# T1 sequence: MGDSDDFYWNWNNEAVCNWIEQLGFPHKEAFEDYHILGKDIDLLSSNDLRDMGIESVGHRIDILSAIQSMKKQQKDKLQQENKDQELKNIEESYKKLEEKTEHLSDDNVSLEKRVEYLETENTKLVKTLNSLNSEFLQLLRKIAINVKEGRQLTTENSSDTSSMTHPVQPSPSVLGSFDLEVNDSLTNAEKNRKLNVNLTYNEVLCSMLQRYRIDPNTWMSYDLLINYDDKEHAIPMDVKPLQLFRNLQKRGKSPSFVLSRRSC
# Target: T1, Ste4-GFP (endogenous) (S. pombe (endogenous in mating cells))
# Test: affinity purification with mass spectrometry
row,binding,Molecule
1,binds,"Sms1 (SPAC23E2.03c, endogenous) (S. pombe (endogenous in mating cells))"
2,binds,"MAP3K^Byr2 (endogenous) (enzyme, UniProt P28829 1-659) MEYYTSKEVAEWLKSIGLEKYIEQFSQNNIEGRHLNHLTLPLLKDLGIENTAKGKQFLKQRDYLREFPRPCILRFIACNGQTRAVQSRGDYQKTLAIALKKFSLEDASKFIVCVSQSSRIKLITEEEFKQICFNSSSPERDRLIIVPKEKPCPSFEDLRRSWEIELAQPAALSSQSSLSPKLSSVLPTSTQKRSVRSNNAKPFESYQRPPSELINSRISDFFPDHQPKLLEKTISNSLRRNLSIRTSQGHNLGNFGQEILPRSSRRARPSELVCPLSSLRISVAEDVNRLPRIDRGFDPPLTVSSTQRISRPPSLQKSITMVGVEPLYQSNGNEKSSKYNVFSESAHGNHQVLSFSPGSSPSFIEQPSPISPTSTTSEDTNTLEEDTDDQSIKWIRGALIGSGSFGQVYLGMNASSGELMAVKQVILDSVSESKDRHAKLLDALAGEIALLQELSHEHIVQYLGSNLNSDHLNIFLEYVPGGSVAGLLTMYGSFEETLVKNFIKQTLKGLEYLHSRGIVHRDIKGANILVDNKGKIKISDFGISKKLELNSTSTKTGGARPSFQGSSFWMAPEVVKQTMHTEKTDIWSLGCLVIEMLTSKHPYPNCDQMQAIFRIGENILPEFPSNISSSAIDFLEKTFAIDCNLRPTASELLSHPFVS"
